Earlier results as cited in patent US5439687A, “Dosage forms having zero-order dihydropyridine calcium antagonist release” (priority 1992, dated 1995).

What was measured:
[1] = not given; remark: listed apart in the source

Row | SMILES | Plasma level peak (20 mg) | Time of plasma level peak (20 mg crystalline) | Absorption of crystalline nifedipine (words) | Maximum soluble in 1000 ml of simulated gastric or intestinal fluid [1]
1 | COC(=O)C1=C(C)NC(C)=C(C(=O)OC)C1c1ccccc1[N+](=O)[O-] [crystalline nifedipine, nifedipine] | about 40 ng/ml | about 1.5 hours | absorbed so slowly that the pharmacokinetic elimination rate exceeds the absorption rate | 
2 | COC(=O)C1=C(C)NC(C)=C(C(=O)OC)C1c1ccccc1[N+](=O)[O-] [nifedipine] |  |  |  | ≤ 10 mg
